# Assay results published in publication PMC6377664.
# Chains of the proteins cited; added tags and fusions are not shown. Residues count along the entry.
# UniProt P49789: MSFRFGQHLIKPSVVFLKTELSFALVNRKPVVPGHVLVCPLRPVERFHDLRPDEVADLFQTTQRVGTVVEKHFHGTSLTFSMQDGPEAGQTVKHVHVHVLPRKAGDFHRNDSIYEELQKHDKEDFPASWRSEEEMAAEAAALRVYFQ
# UniProt P10809, residues 27-573: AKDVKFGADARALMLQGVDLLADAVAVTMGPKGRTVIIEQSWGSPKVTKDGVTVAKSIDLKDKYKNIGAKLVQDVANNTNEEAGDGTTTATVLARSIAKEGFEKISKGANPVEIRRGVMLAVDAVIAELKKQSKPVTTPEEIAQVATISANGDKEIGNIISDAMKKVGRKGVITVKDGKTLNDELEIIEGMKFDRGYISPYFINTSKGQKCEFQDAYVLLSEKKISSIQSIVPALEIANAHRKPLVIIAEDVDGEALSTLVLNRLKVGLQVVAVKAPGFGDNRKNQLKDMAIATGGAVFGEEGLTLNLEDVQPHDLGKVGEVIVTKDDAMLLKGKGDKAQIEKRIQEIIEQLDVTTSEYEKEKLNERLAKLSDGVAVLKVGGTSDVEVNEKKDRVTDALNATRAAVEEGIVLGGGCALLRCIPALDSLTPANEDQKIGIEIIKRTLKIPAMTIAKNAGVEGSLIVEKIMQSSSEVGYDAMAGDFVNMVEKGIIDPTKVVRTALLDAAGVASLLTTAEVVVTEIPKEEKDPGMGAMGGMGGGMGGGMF
# UniProt P61604: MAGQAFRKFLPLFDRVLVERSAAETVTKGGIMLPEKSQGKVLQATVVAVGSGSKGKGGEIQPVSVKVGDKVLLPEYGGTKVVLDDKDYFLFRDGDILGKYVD
# UniProt P05091, residues 18-517: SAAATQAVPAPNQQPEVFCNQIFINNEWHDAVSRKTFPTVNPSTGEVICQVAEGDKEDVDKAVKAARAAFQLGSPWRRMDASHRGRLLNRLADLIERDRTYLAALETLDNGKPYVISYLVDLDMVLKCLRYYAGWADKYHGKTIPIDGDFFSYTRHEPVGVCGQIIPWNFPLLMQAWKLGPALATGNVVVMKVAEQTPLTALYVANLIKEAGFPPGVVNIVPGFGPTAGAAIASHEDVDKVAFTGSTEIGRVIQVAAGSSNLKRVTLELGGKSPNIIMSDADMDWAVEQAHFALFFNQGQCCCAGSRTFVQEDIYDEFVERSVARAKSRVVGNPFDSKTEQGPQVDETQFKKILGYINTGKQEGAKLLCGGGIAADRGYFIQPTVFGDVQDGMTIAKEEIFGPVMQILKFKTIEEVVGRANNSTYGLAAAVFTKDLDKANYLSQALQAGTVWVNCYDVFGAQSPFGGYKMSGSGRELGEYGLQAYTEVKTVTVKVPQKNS
# B1: Ferredoxin reductase (Fdxr), endogenous in A549 (protein, UniProt P22570 33-491)
# chain: STQEKTPQICVVGSGPAGFYTAQHLLKHPQAHVDIYEKQPVPFGLVRFGVAPDHPEVKNVINTFTQTAHSGRCAFWGNVEVGRDVTVPELREAYHAVVLSYGAEDHRALEIPGEELPGVCSARAFVGWYNGLPENQELEPDLSCDTAVILGQGNVALDVARILLTPPEHLERTDITKAALGVLRQSRVKTVWLVGRRGPLQVAFTIKELREMIQLPGARPILDPVDFLGLQDKIKEVPRPRKRLTELLLRTATEKPGPAEAARQASASRAWGLRFFRSPQQVLPSPDGRRAAGVRLAVTRLEGVDEATRAVPTGDMEDLPCGLVLSSIGYKSRPVDPSVPFDSKLGVIPNVEGRVMDVPGLYCSGWVKRGPTGVIATTMTDSFLTGQMLLQDLKAGLLPSGPRPGYAAIQALLSSRGVRPVSFSDWEKLDAEEVARGQGTGKPREKLVDPQEMLRLLGH
# B2: Electron-transfer flavoprotein (Etfb), endogenous in A549 (protein, UniProt P38117-1 1-255)
# chain: MAELRVLVAVKRVIDYAVKIRVKPDRTGVVTDGVKHSMNPFCEIAVEEAVRLKEKKLVKEVIAVSCGPAQCQETIRTALAMGADRGIHVEVPPAEAERLGPLQVARVLAKLAEKEKVDLVLLGKQAIDDDCNQTGQMTAGFLDWPQGTFASQVTLEGDKLKVEREIDGGLETLRLKLPAVVTADLRLNEPRYATLPNIMKAKKKKIEVIKPGDLGVDLTSKLSVISVEDPPQRTAGVKVETTEDLVAKLKEIGRI
# B3: Malate dehydrogenase (Mdh), endogenous in A549 (protein, UniProt P40926-1 25-338)
# chain: AKVAVLGASGGIGQPLSLLLKNSPLVSRLTLYDIAHTPGVAADLSHIETKAAVKGYLGPEQLPDCLKGCDVVVIPAGVPRKPGMTRDDLFNTNATIVATLTAACAQHCPEAMICVIANPVNSTIPITAEVFKKHGVYNPNKIFGVTTLDIVRANTFVAELKGLDPARVNVPVIGGHAGKTIIPLISQCTPKVDFPQDQLTALTGRIQEAGTEVVKAKAGAGSATLSMAYAGARFVFSLVDAMNGKEGVVECSFVKSQETECTYFSTPLLLGKKGIEKNLGIGKVSSFEEKMISDAIPELKASIKKGEDFVKTLK
# Biological target: Fhit-His6 (His-tagged Fhit from adenovirus AdFHIT-His6) (human) (UniProt P49789)
# Assay: affinity purification with mass spectrometry; A549 cells infected with AdFHIT-His6 (control: AdFHIT), cross-linked in vivo with DSP, lysed, proteins isolated with nickel (Ni-NTA) beads, DSP cleaved with DTT, trypsin digest, LC-MS/MS; proteins found only in the AdFHIT-His6 sample kept
row,binding,Molecule
1,binds,"HSP60 (60-kDa heat-shock protein), endogenous in A549 (from UniProt P10809-1 27-573)"
2,binds,"HSP10 (10-kDa heat-shock protein), endogenous in A549 (from UniProt P61604 1-102)"
3,binds,"Mitochondrial aldehyde dehydrogenase 2 (Aldh2), endogenous in A549 (from UniProt P05091-1 18-517)"
4,binds,B1
5,binds,B2
6,binds,B3

# These are yes or no findings as the source states them, for the method shown. Binding seen in cells or lysates may run through a third protein. A yes stands for co-enrichment or nearness to the bait. Other partners may have been found.
